PubChem BioAssay AID1259254 – NCATS – 2017
This is one part, drawn at random, of about 59,000 reagents tested. In the full data, about 1,550 (2.6%) were called active. 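G2 share is only a proxy for re-replication; each gene was hit by three separate siRNAs, and active genes were retested.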 The numbers tell different reagents against one gene apart. Further read-outs or replicates are left out here. Not given: the amount of reagent.

Assay: 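Genome-wide screen for genes that prevent DNA re-replication in cancer cells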 (primary screen)
System: human HCT116 colorectal cancer cells
Knock-down reagent: single siRNA against human genes
Time to read-out: 3 days
Detection: 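Nuclei stained with Hoechst and imaged; cell-cycle phase assigned by DNA content; G2 share scaled per plate, non-targeting siRNA 0%, GMNN siRNA 100%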
Direction: G2 robust z-score and G2 cells, % of GMNN control: higher = more G2 cells, more excess DNA replication
Hit rule: 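An siRNA counts as active if its G2 robust z-score lies at least 5 MADs above the screen median; here such calls match roughly 38% of GMNN control or more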

RBMS3 #1 — G2 robust z-score: 1.49; G2 cells, % of GMNN control: 13.5; Outcome: inactive
RBMS3 #2 — G2 robust z-score: -0.996; G2 cells, % of GMNN control: -4.04; Outcome: inactive
RBMS3 #3 — G2 robust z-score: 1.03; G2 cells, % of GMNN control: 10.2; Outcome: inactive
ARMCX3 #1 — G2 robust z-score: 0.628; G2 cells, % of GMNN control: 7.38; Outcome: inactive
ARMCX3 #2 — G2 robust z-score: 0.234; G2 cells, % of GMNN control: 4.61; Outcome: inactive
ARMCX3 #3 — G2 robust z-score: 2.94; G2 cells, % of GMNN control: 23.7; Outcome: inactive
GLRX3 #1 — G2 robust z-score: -1.19; G2 cells, % of GMNN control: -5.42; Outcome: inactive
GLRX3 #2 — G2 robust z-score: -0.405; G2 cells, % of GMNN control: 0.117; Outcome: inactive
GLRX3 #3 — G2 robust z-score: -1.13; G2 cells, % of GMNN control: -4.95; Outcome: inactive

No new results follow: 2 of the entries above.
ARMCX3 #1 — G2 robust z-score: 0.628; G2 cells, % of GMNN control: 7.38; Outcome: inactive
ARMCX3 #2 — G2 robust z-score: 0.234; G2 cells, % of GMNN control: 4.61; Outcome: inactive

Further entries follow.
MPST #1 — G2 robust z-score: -0.694; G2 cells, % of GMNN control: -1.92; Outcome: inactive
MPST #2 — G2 robust z-score: -0.0934; G2 cells, % of GMNN control: 2.31; Outcome: inactive
MPST #3 — G2 robust z-score: -1.32; G2 cells, % of GMNN control: -6.33; Outcome: inactive
MZF1 #1 — G2 robust z-score: -0.851; G2 cells, % of GMNN control: -3.02; Outcome: inactive
MZF1 #2 — G2 robust z-score: 1.4; G2 cells, % of GMNN control: 12.8; Outcome: inactive
MZF1 #3 — G2 robust z-score: 0.429; G2 cells, % of GMNN control: 5.98; Outcome: inactive
SPACA5B #1 — G2 robust z-score: 1.45; G2 cells, % of GMNN control: 13.2; Outcome: inactive
SPACA5B #2 — G2 robust z-score: -0.123; G2 cells, % of GMNN control: 2.1; Outcome: inactive
SPACA5B #3 — G2 robust z-score: 1.08; G2 cells, % of GMNN control: 10.6; Outcome: inactive
